These results are taken from publication PMC11443525.

Amino acid sequences for entries named in this document (tags omitted). A change or cut given only in a name is not applied to a line headed by its entry.
UniProt Q13467: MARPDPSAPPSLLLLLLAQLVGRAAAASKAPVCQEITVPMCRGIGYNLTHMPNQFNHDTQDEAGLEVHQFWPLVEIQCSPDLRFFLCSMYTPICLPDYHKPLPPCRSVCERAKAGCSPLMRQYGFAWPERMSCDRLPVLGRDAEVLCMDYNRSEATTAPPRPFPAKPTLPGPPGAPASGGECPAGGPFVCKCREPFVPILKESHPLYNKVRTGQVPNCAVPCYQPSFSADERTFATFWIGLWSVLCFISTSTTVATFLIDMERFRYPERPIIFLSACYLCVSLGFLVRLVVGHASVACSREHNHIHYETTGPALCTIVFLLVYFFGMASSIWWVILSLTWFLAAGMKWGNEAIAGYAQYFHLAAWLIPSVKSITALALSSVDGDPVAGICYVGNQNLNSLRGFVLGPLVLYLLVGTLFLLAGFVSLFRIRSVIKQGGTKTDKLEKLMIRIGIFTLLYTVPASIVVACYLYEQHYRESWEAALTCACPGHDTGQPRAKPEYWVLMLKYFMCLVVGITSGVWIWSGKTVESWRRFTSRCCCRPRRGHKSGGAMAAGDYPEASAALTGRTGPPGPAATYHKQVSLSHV
UniProt O60353: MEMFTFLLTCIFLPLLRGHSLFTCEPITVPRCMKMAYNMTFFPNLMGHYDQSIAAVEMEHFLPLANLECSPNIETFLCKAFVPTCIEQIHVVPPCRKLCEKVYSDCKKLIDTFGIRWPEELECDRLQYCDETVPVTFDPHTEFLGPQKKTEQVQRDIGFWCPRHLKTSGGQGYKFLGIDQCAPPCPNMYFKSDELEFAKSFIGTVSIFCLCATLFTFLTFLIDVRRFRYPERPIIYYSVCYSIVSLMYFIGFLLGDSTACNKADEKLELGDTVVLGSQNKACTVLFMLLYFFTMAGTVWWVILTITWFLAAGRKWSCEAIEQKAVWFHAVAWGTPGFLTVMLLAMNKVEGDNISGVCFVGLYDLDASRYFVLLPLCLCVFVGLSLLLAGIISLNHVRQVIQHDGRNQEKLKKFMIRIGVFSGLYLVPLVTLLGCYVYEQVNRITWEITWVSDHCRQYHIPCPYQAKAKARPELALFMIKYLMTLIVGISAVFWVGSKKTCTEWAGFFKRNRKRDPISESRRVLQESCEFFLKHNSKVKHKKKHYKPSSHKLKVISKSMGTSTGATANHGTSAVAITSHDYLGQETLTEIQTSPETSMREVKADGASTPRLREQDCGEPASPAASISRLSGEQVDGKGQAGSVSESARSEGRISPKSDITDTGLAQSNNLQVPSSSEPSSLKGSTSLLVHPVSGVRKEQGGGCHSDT

Experiment [1] addresses FZD5 lacking the extracellular CRD (in the FZD5-DEP-Clamp lacking the CRD) (UniProt Q13467). In words: FRET or BRET; basal interaction of FZD5 lacking the CRD with DEP (Figure S4B–F); whether by titration or in the unimolecular sensor is not told in the text shown. In general terms: BRET reads energy transfer from a luciferase to a nearby fluorophore.
A further experiment has as its target FZD6 Δ559-Nluc (UniProt O60353). As to the kind of experiment: FRET or BRET; BRET acceptor titration in living HEK293A cells: fixed amount of FZDx-Nluc or mSMO-Nluc plasmid (donor), increasing DEP-mVenus plasmid (acceptor); no ligand; HBSS, coelenterazine h 5 μM.

These are yes or no findings as the source states them, for the method shown. In cells and extracts the contact can be indirect. A result given as binding can be weak or reduced; the word gives no strength. Sequences can lack the tags named with a protein.

B1: mVenus-tagged isolated DEP domain of human DVL2 (domain or fragment, UniProt O14641 433-507)
chain: PESGLEVRDRMWLKITIPNAFLGSDVVDWLYHHVEGFPERREARKYASGLLKAGLIRHTVNKITFSEQCYYVFGD
As to B1, the binding entry (in experiment [1]; in the experiment with FZD6 Δ559-Nluc) was “binds” in each case.
